From patent US8815309B2, “Methods of treating a subject with benign prostate hyperplasia” (Zafgen, Inc., priority 2010, dated 2014)
Marks after values point to notes of the source that are not given here.

Experiment: Final body weight in male rats after once daily intravenous infusion for four weeks
Type: in vivo, rat
Conditions: 15-min iv infusion once daily for four weeks, N=10
Description: Male rats were divided into a control group and three test groups with 20 animals per group. Animals were administered the MetAP-2 inhibitor Compound I, represented by the formula: Compound I was prepared in a 5% mannitol solution was administered once daily for four weeks by a fifteen-minute intravenous infusion according to Table I. [table] Ten animals from each group were euthanized at the end of the four weeks. The remaining ten animals were allowed to recover for 10 additional weeks and were then euthanized.

CO[C@@H]1[C@H](OC(=O)/C=C/c2ccc(OCCN(C)C)cc2)CCC2(CO2)[C@H]1[C@@]1(C)O[C@@H]1CC=C(C)C (stereo in doubt) [Compound I]
Final Body Weight (g) Mean (0.04 mg/kg/day): 437** g
Final Body Weight (g) Mean (0.2 mg/kg/day): 411** g
Final Body Weight (g) Mean (1.0 mg/kg/day): 393** g
